The list shows a part of the results.

Protein sequences, listed by entry. Tags and fused reporters are not part of them. Lines headed by an entry give the natural chain unless they say otherwise; changes in a name come on top.
UniProt P27449, whole entry, looked up: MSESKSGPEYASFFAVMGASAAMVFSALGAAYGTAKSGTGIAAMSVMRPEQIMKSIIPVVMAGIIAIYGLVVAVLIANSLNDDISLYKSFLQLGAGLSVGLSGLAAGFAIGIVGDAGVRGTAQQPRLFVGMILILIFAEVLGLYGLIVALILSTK
UniProt Q6P4H8: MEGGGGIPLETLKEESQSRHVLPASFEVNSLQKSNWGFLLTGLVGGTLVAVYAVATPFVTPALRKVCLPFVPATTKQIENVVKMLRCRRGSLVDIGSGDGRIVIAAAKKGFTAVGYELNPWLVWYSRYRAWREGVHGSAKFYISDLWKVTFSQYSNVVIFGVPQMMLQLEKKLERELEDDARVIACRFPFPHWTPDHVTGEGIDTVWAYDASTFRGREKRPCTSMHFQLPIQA
UniProt P14415, whole entry, looked up: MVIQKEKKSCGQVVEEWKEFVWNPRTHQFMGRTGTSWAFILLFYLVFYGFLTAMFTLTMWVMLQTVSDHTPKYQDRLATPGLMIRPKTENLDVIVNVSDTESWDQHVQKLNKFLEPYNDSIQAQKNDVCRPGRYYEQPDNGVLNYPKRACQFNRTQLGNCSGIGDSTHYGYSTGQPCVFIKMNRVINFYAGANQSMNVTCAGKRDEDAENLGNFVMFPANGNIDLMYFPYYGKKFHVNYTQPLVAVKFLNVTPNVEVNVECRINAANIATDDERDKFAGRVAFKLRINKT
UniProt Q8NHH9: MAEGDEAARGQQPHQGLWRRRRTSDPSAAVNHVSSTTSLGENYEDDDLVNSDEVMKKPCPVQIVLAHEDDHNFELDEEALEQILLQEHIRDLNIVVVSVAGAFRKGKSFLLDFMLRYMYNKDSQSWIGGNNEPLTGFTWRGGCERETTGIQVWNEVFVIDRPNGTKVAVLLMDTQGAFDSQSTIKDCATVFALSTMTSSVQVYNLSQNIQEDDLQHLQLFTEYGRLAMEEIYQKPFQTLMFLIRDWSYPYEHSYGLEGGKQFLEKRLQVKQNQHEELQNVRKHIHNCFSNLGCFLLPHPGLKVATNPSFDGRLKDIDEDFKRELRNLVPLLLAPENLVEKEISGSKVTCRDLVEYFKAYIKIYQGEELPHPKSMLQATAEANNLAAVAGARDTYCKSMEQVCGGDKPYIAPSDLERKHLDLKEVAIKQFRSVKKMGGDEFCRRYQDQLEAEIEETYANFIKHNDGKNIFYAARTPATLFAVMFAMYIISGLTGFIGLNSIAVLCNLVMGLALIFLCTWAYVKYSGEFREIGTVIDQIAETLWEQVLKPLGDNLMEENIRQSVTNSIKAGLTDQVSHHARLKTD
UniProt Q9H0Y0: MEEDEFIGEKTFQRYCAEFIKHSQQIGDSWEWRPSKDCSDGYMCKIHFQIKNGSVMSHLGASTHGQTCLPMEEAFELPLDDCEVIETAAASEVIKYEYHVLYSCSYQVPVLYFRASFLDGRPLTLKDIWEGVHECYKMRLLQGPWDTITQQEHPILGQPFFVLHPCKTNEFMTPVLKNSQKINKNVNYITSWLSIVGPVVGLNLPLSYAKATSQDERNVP
UniProt P18847: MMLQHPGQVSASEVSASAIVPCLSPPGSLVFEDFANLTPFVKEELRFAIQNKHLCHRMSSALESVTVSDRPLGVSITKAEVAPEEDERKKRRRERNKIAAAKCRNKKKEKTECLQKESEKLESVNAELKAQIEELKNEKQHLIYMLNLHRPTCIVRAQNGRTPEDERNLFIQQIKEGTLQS
UniProt Q96KC2: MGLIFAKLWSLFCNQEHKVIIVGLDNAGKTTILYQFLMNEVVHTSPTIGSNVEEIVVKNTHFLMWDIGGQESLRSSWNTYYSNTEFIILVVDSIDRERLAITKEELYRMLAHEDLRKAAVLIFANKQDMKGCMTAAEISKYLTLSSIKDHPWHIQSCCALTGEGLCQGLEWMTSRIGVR
UniProt P17544: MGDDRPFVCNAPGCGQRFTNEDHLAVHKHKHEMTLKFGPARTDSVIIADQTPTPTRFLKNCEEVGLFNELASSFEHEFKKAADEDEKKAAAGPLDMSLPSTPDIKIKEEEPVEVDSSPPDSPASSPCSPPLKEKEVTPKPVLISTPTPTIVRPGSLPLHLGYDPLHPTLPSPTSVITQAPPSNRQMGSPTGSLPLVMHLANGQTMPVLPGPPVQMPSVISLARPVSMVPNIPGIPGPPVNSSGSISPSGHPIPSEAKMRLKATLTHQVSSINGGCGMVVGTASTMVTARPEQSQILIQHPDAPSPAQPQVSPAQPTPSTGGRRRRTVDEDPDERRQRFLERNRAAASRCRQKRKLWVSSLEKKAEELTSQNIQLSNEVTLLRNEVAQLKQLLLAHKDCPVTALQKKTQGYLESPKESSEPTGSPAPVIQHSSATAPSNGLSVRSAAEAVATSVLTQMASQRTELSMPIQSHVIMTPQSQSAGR
UniProt P00966: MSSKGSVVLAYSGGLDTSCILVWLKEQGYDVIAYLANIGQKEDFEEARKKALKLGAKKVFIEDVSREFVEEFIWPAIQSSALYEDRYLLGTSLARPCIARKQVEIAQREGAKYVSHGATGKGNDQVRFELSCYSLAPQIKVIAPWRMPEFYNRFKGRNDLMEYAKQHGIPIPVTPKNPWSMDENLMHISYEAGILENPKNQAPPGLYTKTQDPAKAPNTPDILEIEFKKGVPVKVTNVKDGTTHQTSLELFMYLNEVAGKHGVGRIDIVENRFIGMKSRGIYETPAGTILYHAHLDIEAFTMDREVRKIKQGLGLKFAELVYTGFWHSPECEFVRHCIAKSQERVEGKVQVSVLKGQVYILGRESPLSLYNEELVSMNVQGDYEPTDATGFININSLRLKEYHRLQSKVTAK
UniProt Q9H1I8: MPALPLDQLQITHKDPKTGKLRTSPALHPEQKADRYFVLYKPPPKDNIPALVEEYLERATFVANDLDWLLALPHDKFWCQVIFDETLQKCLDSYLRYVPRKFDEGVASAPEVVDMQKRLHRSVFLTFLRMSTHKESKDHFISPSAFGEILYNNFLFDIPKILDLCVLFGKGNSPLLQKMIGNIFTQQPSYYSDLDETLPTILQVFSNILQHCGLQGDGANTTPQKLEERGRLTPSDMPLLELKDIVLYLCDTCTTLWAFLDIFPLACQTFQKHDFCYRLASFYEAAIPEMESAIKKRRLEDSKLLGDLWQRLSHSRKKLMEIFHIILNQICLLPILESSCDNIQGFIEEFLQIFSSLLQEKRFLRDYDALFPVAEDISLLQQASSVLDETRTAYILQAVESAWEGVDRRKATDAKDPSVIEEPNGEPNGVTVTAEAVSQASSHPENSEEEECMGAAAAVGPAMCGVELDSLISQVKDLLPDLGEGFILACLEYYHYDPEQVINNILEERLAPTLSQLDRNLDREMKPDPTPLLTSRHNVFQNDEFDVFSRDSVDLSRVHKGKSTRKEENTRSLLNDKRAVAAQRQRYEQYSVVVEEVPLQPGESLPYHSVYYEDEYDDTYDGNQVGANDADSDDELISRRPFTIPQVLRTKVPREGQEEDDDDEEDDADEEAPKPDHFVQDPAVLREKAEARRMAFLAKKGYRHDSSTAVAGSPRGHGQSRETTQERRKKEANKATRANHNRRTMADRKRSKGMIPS
UniProt O94817, whole entry, looked up: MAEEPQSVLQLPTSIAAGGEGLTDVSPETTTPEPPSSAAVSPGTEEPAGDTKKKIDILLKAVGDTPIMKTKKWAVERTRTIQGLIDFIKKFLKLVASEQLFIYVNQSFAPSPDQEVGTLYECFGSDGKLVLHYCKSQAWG
UniProt Q9H0F7: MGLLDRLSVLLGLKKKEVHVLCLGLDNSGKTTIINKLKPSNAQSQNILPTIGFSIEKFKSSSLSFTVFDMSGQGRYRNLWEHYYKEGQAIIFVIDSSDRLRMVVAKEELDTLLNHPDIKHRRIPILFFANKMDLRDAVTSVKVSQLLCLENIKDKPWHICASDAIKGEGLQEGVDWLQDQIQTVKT
UniProt P98198: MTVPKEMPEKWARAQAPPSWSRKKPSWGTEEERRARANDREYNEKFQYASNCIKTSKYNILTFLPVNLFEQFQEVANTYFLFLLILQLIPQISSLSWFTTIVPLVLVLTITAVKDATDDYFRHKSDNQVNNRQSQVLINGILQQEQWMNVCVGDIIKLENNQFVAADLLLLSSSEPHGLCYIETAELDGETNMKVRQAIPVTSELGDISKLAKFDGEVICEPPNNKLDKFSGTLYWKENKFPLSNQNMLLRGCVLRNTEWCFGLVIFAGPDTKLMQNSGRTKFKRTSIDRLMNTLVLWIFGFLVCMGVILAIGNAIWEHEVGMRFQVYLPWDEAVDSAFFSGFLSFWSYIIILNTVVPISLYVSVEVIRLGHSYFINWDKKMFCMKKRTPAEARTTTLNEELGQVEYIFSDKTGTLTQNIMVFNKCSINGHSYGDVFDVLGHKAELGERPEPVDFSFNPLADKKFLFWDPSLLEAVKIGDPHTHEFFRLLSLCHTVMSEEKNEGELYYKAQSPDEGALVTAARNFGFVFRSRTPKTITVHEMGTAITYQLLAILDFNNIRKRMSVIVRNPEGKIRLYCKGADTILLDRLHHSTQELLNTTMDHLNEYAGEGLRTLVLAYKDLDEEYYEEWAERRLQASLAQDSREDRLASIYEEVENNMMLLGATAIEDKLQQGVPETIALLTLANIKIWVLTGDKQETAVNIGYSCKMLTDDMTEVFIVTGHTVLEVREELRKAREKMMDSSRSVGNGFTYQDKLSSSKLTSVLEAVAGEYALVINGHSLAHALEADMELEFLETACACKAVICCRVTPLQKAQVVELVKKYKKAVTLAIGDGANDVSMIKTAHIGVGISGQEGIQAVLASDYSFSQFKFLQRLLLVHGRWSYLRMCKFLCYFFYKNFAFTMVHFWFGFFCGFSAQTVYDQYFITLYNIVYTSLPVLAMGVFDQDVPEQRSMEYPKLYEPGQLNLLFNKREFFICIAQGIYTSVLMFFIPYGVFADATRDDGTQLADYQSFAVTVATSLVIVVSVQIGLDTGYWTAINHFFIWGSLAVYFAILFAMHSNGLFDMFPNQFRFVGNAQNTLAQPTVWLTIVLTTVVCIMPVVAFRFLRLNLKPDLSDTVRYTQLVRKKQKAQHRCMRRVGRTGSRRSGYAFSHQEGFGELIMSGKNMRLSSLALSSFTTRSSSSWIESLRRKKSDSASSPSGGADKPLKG
UniProt Q8IUR7, whole entry, looked up: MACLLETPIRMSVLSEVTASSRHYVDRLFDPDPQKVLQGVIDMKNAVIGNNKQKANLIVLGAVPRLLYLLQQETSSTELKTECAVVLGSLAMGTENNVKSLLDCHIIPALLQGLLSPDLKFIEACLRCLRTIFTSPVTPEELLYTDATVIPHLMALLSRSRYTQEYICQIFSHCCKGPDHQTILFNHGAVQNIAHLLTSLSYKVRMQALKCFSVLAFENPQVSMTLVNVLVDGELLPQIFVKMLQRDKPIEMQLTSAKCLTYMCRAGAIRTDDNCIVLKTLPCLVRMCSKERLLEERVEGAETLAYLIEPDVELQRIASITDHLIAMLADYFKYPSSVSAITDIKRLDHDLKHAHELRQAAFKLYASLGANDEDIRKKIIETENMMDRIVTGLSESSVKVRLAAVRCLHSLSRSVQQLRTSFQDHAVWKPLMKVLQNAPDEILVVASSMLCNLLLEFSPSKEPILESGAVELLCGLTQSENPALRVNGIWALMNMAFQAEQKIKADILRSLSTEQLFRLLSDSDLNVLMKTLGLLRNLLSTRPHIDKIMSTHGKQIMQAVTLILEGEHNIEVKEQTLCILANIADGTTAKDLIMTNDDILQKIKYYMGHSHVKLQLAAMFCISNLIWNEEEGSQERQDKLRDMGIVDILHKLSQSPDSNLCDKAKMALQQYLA
UniProt O95260: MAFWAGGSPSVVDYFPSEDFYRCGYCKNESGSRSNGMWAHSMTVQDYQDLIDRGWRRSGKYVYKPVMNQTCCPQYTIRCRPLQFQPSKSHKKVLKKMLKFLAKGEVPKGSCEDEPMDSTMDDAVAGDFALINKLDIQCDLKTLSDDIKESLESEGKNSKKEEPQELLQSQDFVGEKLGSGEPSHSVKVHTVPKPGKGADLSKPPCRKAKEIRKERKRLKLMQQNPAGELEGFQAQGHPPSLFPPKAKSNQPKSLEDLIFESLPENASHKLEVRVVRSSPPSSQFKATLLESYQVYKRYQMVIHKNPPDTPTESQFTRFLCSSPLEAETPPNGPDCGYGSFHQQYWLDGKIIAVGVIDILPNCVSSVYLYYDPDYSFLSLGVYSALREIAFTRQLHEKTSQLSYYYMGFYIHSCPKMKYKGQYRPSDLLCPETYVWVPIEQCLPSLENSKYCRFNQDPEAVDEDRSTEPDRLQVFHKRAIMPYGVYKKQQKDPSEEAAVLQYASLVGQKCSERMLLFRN

Compound in this test: CN(C)CC(=O)Nc1ccc2[nH]c(=O)c3ccccc3c2c1
Description: log2 fold change, soluble protein after heating vs DMSO (PISA); higher = thermal stabilisation; K562 cells, 10 uM, 30 min; active = over 0.2 and 3.5 SD of the protein, either way, in both replicates (recomputed). In a few lines:
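Soluble protein was defined as the supernatant after 21,000xg for 90 min. It came from K562 cells at 2×10^6 cells/mL given 10 μM compound for 30 min, heated in aliquots for 3 min across 48°C-58°C, pooled, and extracted in PBS with 0.5% NP-40 at 4°C, and was quantified by TMTpro 16plex LC-MS/MS with equalised channel sums. Thermal stability against control samples, from duplicates, is reported as log2 fold change.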
As to ATP6V0C (UniProt P27449), the log2 fold change is inactive: 0.073.
In the case of ATPSCKMT (UniProt Q6P4H8) it was inactive: 0.014; in that of ATP1B2 (UniProt P14415), inactive: 0.044; in that of ARSK (UniProt Q6UWY0), inactive: 0.05.
As for ATL2 (UniProt Q8NHH9), the log2 fold change was inactive: 0.028.
The same measure for ATG10 (UniProt Q9H0Y0): inactive: -0.366.
Regarding ATF3 (UniProt P18847), the log2 fold change was inactive: -0.112.
In the case of ASB6 (UniProt Q9NWX5) it was inactive: 0.041; in that of ARL5B (UniProt Q96KC2), inactive: 0.17; in that of ARPIN isoform 2 (UniProt Q7Z6K5), inactive: 0.
Consider ARSA (UniProt P15289), for which the log2 fold change was inactive: 0.081.
The same measure for ARRDC1 (UniProt Q8N5I2): inactive: 0.023.
Consider ATF7 isoform 6 (UniProt P17544), for which the log2 fold change was inactive: 0.03.
In the case of ATF7IP isoform 4 (UniProt Q6VMQ6) it was inactive: 0.132.
In the case of ATP1B1 (UniProt P05026) it was inactive: 0.001; in that of ASS1 (UniProt P00966), inactive: -0.072.
The same measure for ASCC2 (UniProt Q9H1I8): inactive: -0.098.
With ATG12 (UniProt O94817), the log2 fold change is inactive: -0.015.
The same measure for ARL6 isoform 2 (UniProt Q9H0F7): inactive: -0.005; for ATP8B2 isoform 3 (UniProt P98198): inactive: -0.162; for ARMC8 isoform 6 (UniProt Q8IUR7): inactive: 0.016.
The same measure for ATE1 (UniProt O95260): inactive: 0.098; for ATP2B2 (UniProt Q01814): inactive: 0.218.

(Values after the supplement of paper PMC10849652.)
